Laboratory results published in paper PMC11618752.
These are yes or no findings as the source states them, for the method shown. In cells and extracts the contact can be indirect. A yes stands for co-enrichment or nearness to the bait. Other partners may have been found.

Chains of the proteins cited; added tags and fusions are not shown.
UniProt Q9BRJ7: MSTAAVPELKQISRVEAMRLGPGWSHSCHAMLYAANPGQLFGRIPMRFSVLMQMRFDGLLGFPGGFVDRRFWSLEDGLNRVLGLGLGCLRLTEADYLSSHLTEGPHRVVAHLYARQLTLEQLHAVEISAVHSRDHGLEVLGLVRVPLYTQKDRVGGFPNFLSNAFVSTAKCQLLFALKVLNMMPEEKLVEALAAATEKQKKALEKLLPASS

Target: Flag-tagged wild-type TIRR (UniProt Q9BRJ7)
Assay: affinity purification with mass spectrometry; 293T cells transfected with Flag-TIRR, with or without IR (4 Gy); lysed in IP buffer, Flag-conjugated agarose beads, eluted with 2% SDS, LC-MS

binding: binds
B1: TRIM56, endogenous (enzyme, UniProt Q9BRZ2 1-755)
chain: MVSHGSSPSLLEALSSDFLACKICLEQLRAPKTLPCLHTYCQDCLAQLADGGRVRCPECRETVPVPPEGVASFKTNFFVNGLLDLVKARACGDLRAGKPACALCPLVGGTSTGGPATARCLDCADDLCQACADGHRCTRQTHTHRVVDLVGYRAGWYDEEARERQAAQCPQHPGEALRFLCQPCSQLLCRECRLDPHLDHPCLPLAEAVRARRPGLEGLLAGVDNNLVELEAARRVEKEALARLREQAARVGTQVEEAAEGVLRALLAQKQEVLGQLRAHVEAAEEAARERLAELEGREQVARAAAAFARRVLSLGREAEILSLEGAIAQRLRQLQGCPWAPGPAPCLLPQLELHPGLLDKNCHLLRLSFEEQQPQKDGGKDGAGTQGGEESQSRREDEPKTERQGGVQPQAGDGAQTPKEEKAQTTREEGAQTLEEDRAQTPHEDGGPQPHRGGRPNKKKKFKGRLKSISREPSPALGPNLDGSGLLPRPIFYCSFPTRMPGDKRSPRITGLCPFGPREILVADEQNRALKRFSLNGDYKGTVPVPEGCSPCSVAALQSAVAFSASARLYLINPNGEVQWRRALSLSQASHAVAALPSGDRVAVSVAGHVEVYNMEGSLATRFIPGGKASRGLRALVFLTTSPQGHFVGSDWQQNSVVICDGLGQVVGEYKGPGLHGCQPGSVSVDKKGYIFLTLREVNKVVILDPKGSLLGDFLTAYHGLEKPRVTTMVDGRYLVVSLSNGTIHIFRVRSPDS
